Test system: Polymyxin B derived antibody
Test: Competitive biochip immunoassay, standard curves with Polymyxin B derived antibody and Colistin-based tracer
Format: binding, sheep
Experimental: The process of developing an immunoassay is well known to the person skilled in the art. Briefly, for a competitive immunoassay in which the target analyte is a non-immunogenic molecule such as a hapten, a general immunoassay development process outlined. Following antibody production, a detecting agent is added to a sample containing the target analyte and the raised antibodies, and the detecting agent and analyte compete for binding to the antibodies. The process may comprise fixing said serum antibodies to a solid state device such as a polystyrene support or a ceramic chip. The antibodies can be polyclonal or monoclonal using standard techniques, but the current invention makes use of polyclonal antibodies. The signal emitted in the immunoassay is proportionate to the quantity of detecting agent bound to the antibodies which in turn is inversely proportionate to the analyte concentration. The signal can be detected or quantified by comparison with a calibrator.
175 μl of assay diluent, then 25 μl of Polymyxin diluted in calibrator base was added to the appropriate wells. Biochips spotted with antibody of the invention were incubated for 30 min at 25° C. in a thermo-shaker at 370 rpm. 100 μl Tracer of the invention was added to the appropriate wells. Biochips were incubated for 60 min at 25° C. in a thermo-shaker at 370 rpm. Biochips were washed with TBST (2 quick washes followed by 4 washes at 2 min intervals). Biochips were developed with 250 μl signal: peroxide (1:1) for 2 min in the dark. Biochips were imaged on the Randox Investigator (2×60 sec images). All biochips were manually processed.

Substance	RLU (standard conc 0.391 ng/ml)	RLU (standard conc 0.781 ng/ml)	RLU (standard conc 1.563 ng/ml)	RLU (standard conc 3.125 ng/ml)	RLU (standard conc 6.250 ng/ml)	RLU (standard conc 12.500 ng/ml)	RLU (standard conc 25.000 ng/ml)	RLU (standard conc 50.000 ng/ml)	RLU (standard conc 0.078 ng/ml)	RLU (standard conc 0.156 ng/ml)	RLU (standard conc 0.313 ng/ml)	RLU (standard conc 0.625 ng/ml)	RLU (standard conc 1.250 ng/ml)	RLU (standard conc 2.500 ng/ml)	RLU (standard conc 5.000 ng/ml)	RLU (standard conc 10.000 ng/ml)
Colistin	6524	5297	4046	3034	1586	1029	799	574								
Polymyxin B									7380	6651	5449	4771	4327	3275	2307	1400

From patent US10620225B2, “Detection of polymyxins” (Randox Laboratories Limited, priority 2014, dated 2020)
